# Primary screen of a compound library

The chains behind the UniProt entries cited, without tags or fusion partners.
UniProt E9BF75, entry or part of it: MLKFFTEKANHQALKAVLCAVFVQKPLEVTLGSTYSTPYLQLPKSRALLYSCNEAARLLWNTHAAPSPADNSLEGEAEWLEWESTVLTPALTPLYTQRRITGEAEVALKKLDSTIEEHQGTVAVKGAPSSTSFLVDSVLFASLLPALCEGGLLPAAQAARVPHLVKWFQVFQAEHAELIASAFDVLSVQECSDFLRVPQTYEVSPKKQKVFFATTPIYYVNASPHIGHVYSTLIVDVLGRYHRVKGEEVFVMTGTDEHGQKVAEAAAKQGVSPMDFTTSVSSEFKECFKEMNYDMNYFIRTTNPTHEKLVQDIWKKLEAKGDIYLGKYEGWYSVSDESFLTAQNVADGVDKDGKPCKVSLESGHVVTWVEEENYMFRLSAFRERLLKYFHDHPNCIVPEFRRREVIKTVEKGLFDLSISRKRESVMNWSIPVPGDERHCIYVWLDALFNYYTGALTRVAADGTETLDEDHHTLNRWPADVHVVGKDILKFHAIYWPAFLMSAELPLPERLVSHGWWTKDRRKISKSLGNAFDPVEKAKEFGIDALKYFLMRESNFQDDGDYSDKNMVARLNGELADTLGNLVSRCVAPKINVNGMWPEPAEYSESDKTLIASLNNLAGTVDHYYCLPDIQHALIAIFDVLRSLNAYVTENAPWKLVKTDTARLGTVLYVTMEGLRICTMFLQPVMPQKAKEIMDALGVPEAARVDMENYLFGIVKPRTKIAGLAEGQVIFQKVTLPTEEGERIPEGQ

A: 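Assay on Mycobacterium tuberculosis, filed only as a heat shock assay from Cornell; the read-out is not stated. The concentration is filed as 10 mM, unlikely as a test dose, so the dose is not known. The record gives no direction; compounds that gave an IC50 in retests scored well above the rest, so higher reads as stronger inhibition. Of about 69,000 compounds tested this way, about 930 (1.4%) reached 50% or more in at least one test.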
B: 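Primary screen of methionyl-tRNA synthetase; the read-out is not stated. Target: Methionyl-tRNA synthetase (putative), Leishmania donovani (UniProt E9BF75). The test concentration is not given. The values are filed as inhibition. About 68,000 compounds were tested under these conditions; 0.035% (about 24) showed 50% or more at least once.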
C: 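Whole-cell assay for inhibitors of Mycobacterium tuberculosis growth, labelled Cornell in the record; the read-out is not stated. The concentration is filed as 10 mM, unlikely as a test dose, so the dose is not known. The record gives no direction; compounds strong in two other growth screens of this library score well above the rest, so higher reads as stronger inhibition. About 53,000 compounds were tested under these conditions; 1.7% (about 900) showed 50% or more at least once.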

Results are percentages, as filed.
The record does not define 0% and 100%; most values in the screen are far below 50% and negative numbers occur (in some assays of this library far below -100).
The compounds are a random part of those screened.
A dash means the value is not listed here; it may have been measured.

compound | A | B | C
O=C(O)C(F)(F)F.O=C(c1ccoc1)N1CCCC2(CCC(=O)N2Cc2cccnc2)C1 (centres unmarked) | -19.52% | - | 22.95%
CCNC(=O)[C@@H]1CCCN1C1(C(=O)NC)CCCCC1.Cl | 6.407% | - | -
CCN1CCN(c2ncc(-c3cc(C)no3)c(-c3ccco3)n2)CC1 | -15.86% | 4% | -
Cc1cc(CN2CCCC(Cn3cncn3)C2)on1 (centres unmarked) | -13.99% | 10.93% | -
CC(C)CC(O)C1CCN(Cc2ccc(N(C)C)nc2)CC1 (centres unmarked) | -15.66% | 15.73% | -39.46%
CCOc1ccc(S(=O)(=O)NCCCc2ccc(N(C)C)cc2)cc1F | 22.54% | 10.79% | -29.55%
O=C(CCn1ccc2cc(Br)ccc21)NC[C@@H]1CCCN2CCCC[C@H]12 | - | 3.876% | -
Cc1occc1C(=O)N1C[C@@H]2CCCO[C@@H]2[C@H](NS(C)(=O)=O)C1 | - | 0% | -
COC1CN(C(=O)NCC(N)=O)CCC(=O)N(C)c2ccccc21 (centres unmarked) | 16.15% | 6.849% | 1.827%
Cc1ccnc(C2CN(Cc3ccc(-c4ccccc4C(=O)O)o3)C2)n1 | 6.042% | 44.06% | 12.6%
Cc1ncccc1Oc1nccnc1C1CCCN(C(C)C)C1 (centres unmarked) | -26.4% | 8.706% | -
Cc1cc(NC(=O)[C@H]2CCCCN2C(=O)OC(C)(C)C)no1 | -1.725% | 20.6% | -5.776%
COc1cc(C(=O)NCC2CCCO2)nc2c(C)cc(F)cc12 (centres unmarked) | -2.643% | 13.87% | 16.85%
[H][C@]12CCN[C@@]1([H])CN(C(=O)Cc1ccc(F)cc1)C2 | -7.322% | - | 16.67%
Cc1cc(NC(=O)CCN(CC2CCOC2)C2CC2)no1 (centres unmarked) | 11.19% | 7.692% | -
CC(NC(=O)c1ccc(=O)n(C)c1)c1ccccc1-n1cccn1 (centres unmarked) | 20.14% | 18.87% | 8.34%
CSc1ncccc1C(=O)NCCC(O)c1cc(C)oc1C (centres unmarked) | -7.054% | 12.95% | 14.96%
Cc1n[nH]cc1C(=O)N1CCCC(c2cccc(-n3ccnc3)n2)C1 (centres unmarked) | -15.5% | 12% | -
Cc1noc(C)c1CN1CC2(CCN(C(=O)c3ccc[nH]3)C2)CC1=O (centres unmarked) | 0.7597% | 9.774% | -4.837%
Cc1nc2c(c(N3CCC(O)(Cn4ccnc4)CC3)n1)CCNCC2 | -17.59% | 2.941% | 7.978%
O=C(Cn1cnc2ccsc2c1=O)c1ccc2c(c1)OCCO2 | -3.925% | 12.57% | -0.5896%
Cc1cc(C(=O)N2CCc3c(nc(-c4ccncc4)[nH]c3=O)C2)no1 | 8.583% | 7.527% | 7.066%
CC(=O)Nc1nc(CN2CCCC2Cn2cncn2)cs1 (centres unmarked) | -13% | 6.883% | -14.23%
Cn1cc(CN2CCOC(Cc3cccc(F)c3)C2)cn1 (centres unmarked) | -2.837% | 10.92% | -
[H][C@@]12CCN(C(=O)COC)C[C@]1(c1nc(C)no1)CCO2 | -21.61% | - | -17.38%
NC(=O)c1cc2c(nc1CC1CCCCO1)CCC2 (centres unmarked) | -131.2% | 10.57% | -
O=C(O)C(F)(F)F.[H][C@@]12CCN(C3CCOCC3)C[C@]1(C(=O)N1CCOCC1)CCO2 | -45.79% | - | -11.4%
Cc1cccc(CN2CCCC(O)(CNCCc3c[nH]cn3)C2=O)c1 (centres unmarked) | -3.749% | 10.13% | -
Clc1cccc(N2CCC(NCc3ncc[nH]3)C2)c1 (centres unmarked) | 62.08% | 21.18% | 14.86%
Cc1ncc(-c2ccnc(N[C@@H](C)CO)n2)c(C2CCCCC2)n1 | -41.01% | 7.039% | -35.31%
COc1cccc2c(=O)n(Cc3cc(C4CC4)[nH]n3)cnc12 | 5.266% | 7.05% | -
COc1c(CNC2CCN(C(C)(C)C)CC2)c(C(C)C)nn1C | 1.25% | 11.81% | 15.04%
CC(C)c1nn(C)c(N(C)C)c1CNC1CCc2cc(F)ccc21 (centres unmarked) | - | 15.47% | -
CCS(=O)(=O)NCCCNC(=O)N(C)C(C)c1ccccn1 (centres unmarked) | -0.3044% | 9.358% | -
CC(=O)NC(CC(=O)Nc1ccc(C)cn1)c1ccccc1 (centres unmarked) | -26.37% | 19.67% | -
O=C(O)c1cccc(S(=O)(=O)N2CCOc3ccccc32)c1 | 1.008% | 16.71% | -
CN(CC(=O)N(C)C1CCN(CC2CCOC2)CC1)c1ccccc1 (centres unmarked) | -37.16% | 12.78% | -
COc1ccc(CNC(=O)N2CCN(CC(O)C3CC3)CC2)cc1 (centres unmarked) | - | 13.47% | -
COc1ccc(N(Cc2ccco2)C(=O)C2CCOC2)cc1F (centres unmarked) | -0.9998% | 6.015% | -
CN(C)[C@@H]1CO[C@H](CNC(=O)c2ccccc2)[C@H]1O | -2.834% | 12.64% | -
OC[C@@H](O)CN(CCC(F)(F)F)c1ncc(Br)cn1 | -12.63% | 0.8287% | -
O=C(Cc1ccccn1)N1C[C@H]2CCC[C@@]2(COc2ccccn2)C1 | - | 5.229% | -
CC(NC(=O)COc1ccccc1C(=O)O)c1ccc(F)cc1 (centres unmarked) | 4.974% | 17.6% | 20.96%
Cc1noc2nc(C3CCCN(Cc4ccncc4)C3)cc(C(F)F)c12 (centres unmarked) | 3.554% | 19.79% | 13.36%
OC(CN1CCC(c2ccn[nH]2)CC1)c1ccc(F)cc1F (centres unmarked) | 2.714% | 17.22% | 3.023%
Cc1nn(CN(CC(C)C)C2CC2)c(=O)c2noc(C)c12 | 34.31% | 7.666% | 8.218%
CCOc1ccc(-c2ccnc(C3CC3)n2)cc1C(=O)O | -3.093% | 14.84% | -
COc1cccc(CNCCc2cc(F)cc3c2OCOC3)c1 | -3.514% | 8.85% | -1.91%
CCOC(=O)NCCC(O)c1ccoc1 (centres unmarked) | -19.37% | 13.15% | 23.86%
COCCn1cc(C(=O)N2CCCC2c2ccncc2)c2ccccc21 (centres unmarked) | 10.22% | 6.044% | -
O=C(CC1CC1)NCc1cn2c(n1)CN(Cc1cccnc1)CC2.O=C(O)C(F)(F)F.O=C(O)C(F)(F)F | -4.179% | - | 11.64%
COc1c(C2CCCN2C(=O)c2sccc2C#N)c(C)nn1C (centres unmarked) | 5.833% | 4.348% | 1.233%
COc1ccc2cnn(CC(=O)NC3CCCC3)c(=O)c2c1OC | 15.35% | 19.95% | 48.85%

For reference, 3 entries once more:

compound	A	B	C
COC1CN(C(=O)NCC(N)=O)CCC(=O)N(C)c2ccccc21 (centres unmarked)	16.15%	6.849%	1.827%
Cc1nc2c(c(N3CCC(O)(Cn4ccnc4)CC3)n1)CCNCC2	-17.59%	2.941%	7.978%
COc1cccc(CNCCc2cc(F)cc3c2OCOC3)c1	-3.514%	8.85%	-1.91%

The values are deposited in ChEMBL (CHEMBL3988442, “University of Dundee, Small-Polar-MMV Screening Library” (2021)).